Values from PubChem BioAssay AID1671195 (Yale University, 2021).
Shown is a random part of about 22,000 reagents tested. Over the whole deposit, about 1,510 (6.9%) are marked active. 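Active includes knockdowns raising or lowering LDL uptake; positive z-scores mean more uptake, negative mean less.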

Screen: 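Knockdowns that increase or decrease uptake of fluorescent LDL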 (primary screen)
Cells: human Huh7 hepatoma cells
Knock-down reagent: siRNA pool against human genes, 18 nM
Duration: about 2 to 2.5 days of knockdown, then 8 h LDL uptake
Treatment: DiI-labelled LDL at 30 µg/ml for 8 h, in lipoprotein-deficient serum medium
Read-out: 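Fluorescent LDL signal imaged in cells, scaled to the plate median, robust z-score for each replicate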
Scale: robust z-score: higher = more LDL uptake after knockdown
Hit rule: 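Active when two or more replicates show a robust z-score above 2 or below -2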

| target gene | PubChem SID | robust z-score, replicate 1 | robust z-score, replicate 2 | robust z-score, replicate 3 | Call |
| --- | --- | --- | --- | --- | --- |
| H2AC15 | SID442887100 | 0.144 | 2.41 | 0.409 | inactive |
| DHRS2 | SID442902822 | -1.29 | -0.926 | -1.25 | inactive |
| MT1DP | SID442900043 | -0.762 | -0.609 | -0.739 | inactive |
| HCN4 | SID442898451 | -0.441 | -0.423 | -0.636 | inactive |
| LOC389117 (retired record) | SID442892761 | -0.0398 | -0.0406 | 0.462 | inactive |
| CDHR2 | SID442887095 | 0.688 | 0.975 | 1.3 | inactive |
| ADAMTS16 | SID442888456 | 0.829 | 0.846 | 0.474 | inactive |
| KCNA1 | SID442883199 | 4.82 | 3.31 | 3.82 | active |
| PCDHB13 | SID442891568 | 0.292 | 0.583 | -0.0641 | inactive |
| MC3R | SID442883982 | 1.46 | 2.48 | 2.36 | active |
| DNAJC5 | SID442899013 | -0.469 | -0.496 | -0.734 | inactive |
| DENND10 | SID442883216 | 4.44 | 3.43 | 3.62 | active |
| LOC391542 (retired record) | SID442902474 | -0.689 | -1.3 | -1.26 | inactive |
| WWP2 | SID442897724 | -0.552 | -0.338 | -0.362 | inactive |
| GRIA2 | SID442899392 | -1.1 | -0.713 | -0.0347 | inactive |
| DZIP3 | SID442887744 | 2.76 | 0.181 | -0.396 | inactive |
| TJAP1 | SID442889745 | 0.335 | 0.573 | 0.636 | inactive |
| TEX41 | SID442889725 | 0.53 | 0.329 | 0.694 | inactive |
| NTN1 | SID442888234 | 0.602 | 0.897 | 0.781 | inactive |
| IL37 | SID442886247 | -0.329 | 2.44 | 1.54 | inactive |
| CACNA2D3 | SID442901299 | -0.793 | -0.991 | -0.853 | inactive |
| CTDNEP1 | SID442897115 | 1.28 | -2.34 | 0.0152 | inactive |
| GPR3 | SID442904168 | -1.66 | -1.38 | -1.51 | inactive |
| NDUFA11 | SID442887402 | 1.53 | 0.993 | 0.243 | inactive |
| KLHL8 | SID442897891 | 0.0683 | -0.976 | -0.401 | inactive |
| ZNF790 | SID442896737 | -0.352 | -0.123 | -0.446 | inactive |
| PKD2L1 | SID442893205 | 0.208 | -0.366 | 0.388 | inactive |
| DMBT1L1 | SID442900470 | -0.648 | -0.888 | -0.756 | inactive |
| SENP3 | SID442891987 | 0.354 | 0.0924 | 0.219 | inactive |
| SLC2A7 | SID442889297 | 0.194 | 0.431 | 1.12 | inactive |
| DCDC2B | SID442896605 | -0.408 | 0.0029 | -0.471 | inactive |
| LINC02591 | SID442892732 | 0.853 | -0.226 | -0.236 | inactive |
| ATAD3B | SID442900401 | -1.24 | -0.459 | -0.566 | inactive |
| RNF2 | SID442898343 | -0.633 | -0.464 | -0.367 | inactive |
| SPEF2 | SID442899225 | -0.513 | -0.342 | -0.924 | inactive |
| YPEL4 | SID442894618 | -0.0353 | 0.0738 | -0.287 | inactive |
| HEATR6 | SID442894941 | 0.123 | -0.0217 | -0.449 | inactive |
| KAT2A | SID442901622 | -1.37 | -0.211 | -1.21 | inactive |
| ECI2 | SID442893499 | 0.984 | -0.892 | 0.0381 | inactive |
| GUSBP1 | SID442888139 | 0.777 | 0.536 | 1.02 | inactive |
| LOC401324 | SID442890749 | 0.49 | 0.383 | 0.247 | inactive |
| PIAS3 | SID442885954 | 1.05 | 2.46 | 0.427 | inactive |
| ATL3 | SID442883532 | 2.29 | 3.84 | 2.04 | active |
| FERMT2 | SID442883129 | 3.83 | 4.06 | 6.88 | active |
| SETD4 | SID442887311 | 1.11 | 0.546 | 1.17 | inactive |
| DKK4 | SID442893912 | 0.337 | -0.51 | 0.165 | inactive |
| VPS26C | SID442887229 | 0.0995 | 1.74 | 1.03 | inactive |
| ZP2 | SID442897105 | 0.576 | -1.23 | -0.394 | inactive |
| ZNF418 | SID442885855 | 1.21 | 0.997 | 1.82 | inactive |
| IPO11 | SID442896884 | -0.649 | -0.444 | 0.125 | inactive |
| AMELY | SID442898369 | 0.323 | -1.09 | -0.703 | inactive |
| LGALS9 | SID442883191 | 3.5 | 4.24 | 4.42 | active |
| HNRNPA3P5 | SID442903216 | -1.33 | -1.21 | -1.19 | inactive |
| HPGDS | SID442885997 | 1.87 | 0.351 | 1.66 | inactive |
| LARP1 | SID442887627 | 0.699 | 1.01 | 0.914 | inactive |
| ABCC12 | SID442884931 | 1.74 | 2.37 | 1.21 | inactive |
| ZNF767P | SID442886470 | 1.63 | 1.08 | 0.749 | inactive |
| LOC441137 (retired record) | SID442895959 | -0.3 | -0.0733 | -0.299 | inactive |
| PLEK | SID442892408 | 0.471 | -0.335 | 0.377 | inactive |
| PRIMA1 | SID442886582 | 1.44 | 0.609 | 1.31 | inactive |
| FUZ | SID442884541 | -2.17 | -2.45 | -2.56 | active |
| FLJ45337 (retired record) | SID442896730 | -0.284 | -0.333 | -0.301 | inactive |
| DMKN | SID442887043 | 1.34 | 1.06 | 0.596 | inactive |
| ATOH1 | SID442895426 | -0.0372 | -0.241 | -0.224 | inactive |
| PPP3CC | SID442895809 | -0.146 | -0.659 | 0.18 | inactive |
| TPX2 | SID442897138 | -0.128 | -0.627 | -0.299 | inactive |
| LRRC7 | SID442885893 | 0.367 | 0.246 | 3.38 | inactive |
| C5orf63 | SID442884487 | -2.21 | -2.28 | -2.13 | active |
